In PMC7819943, “Rice protein-binding microarrays: a tool to detect cis-acting elements near promoter regions in rice” one finds binding signal data, which are given here for 42 sequences.

By UniProt entry, the sequences of proteins in these tests, tags left out.
UniProt Q0JBA9, entry or part of it: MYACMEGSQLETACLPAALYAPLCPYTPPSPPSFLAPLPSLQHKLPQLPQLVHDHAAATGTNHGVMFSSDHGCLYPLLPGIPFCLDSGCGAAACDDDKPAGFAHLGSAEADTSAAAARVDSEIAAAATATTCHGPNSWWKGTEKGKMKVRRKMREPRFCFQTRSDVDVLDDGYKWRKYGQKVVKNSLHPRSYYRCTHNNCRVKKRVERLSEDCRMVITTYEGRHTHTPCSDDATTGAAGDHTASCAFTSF

The list shows a part of the results.

The assay addresses OsWRKY34 (Oryza sativa, UniProt Q0JBA9 1-250). Briefly: protein-binding microarray (RPBM); PBS, 2% BSA, 51.3 ng/ul salmon testes DNA, 50 uM zinc acetate, 200 nM TF, 25 C, 1 h; high values mean tight binding. To be noted: protein: recombinant; tags: N-terminal polyhistidine and DsRed monomer fusion (pET32a); label: CyDye5-dUTP incorporated in the synthesized complementary strand; 3' TTTTT single-stranded linker to array surface; dsDNA, one strand shown. The method, boiled down:
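Ni–NTA purification followed expression in E. coli BL21-CodonPlus of transcription factors fused N-terminally to a polyhistidine tag and DsRed. At 200 nM in PBS with 2% BSA, salmon testes DNA and 50 µM zinc acetate, the protein was incubated for 1 h at 25 °C with a custom Agilent array that had been primer-extended with Cy5-dUTP and blocked with 2% BSA. After washing, the array was read on an Axon 4000B scanner. The binding signal is per-feature fluorescence intensity in arbitrary units.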
With “CGCCATCCGAAATTCCCGTATCCTCTCGAGTCTCGTCTTCCGGAGTCACCTAGTGCAG”, the binding signal was 8470 fluorescence intensity (a.u.). On to “CTCCACTCCACCTCACACGCCTCATCGACCTCCCAAGAACCGGAGTCACCTAGTGCAG”, for which the binding signal is 8580 fluorescence intensity (a.u.). The figure for “GATGCCCTTGAGTTGAGGGAGGTTTACTTGTTTGGTCGGCCGGAGTCACCTAGTGCAG” is 8340 fluorescence intensity (a.u.); for “ATGCTTGTGTATTCATAGTGATTATCAATTTAATCTTGTTCGGAGTCACCTAGTGCAG” it is 8570 fluorescence intensity (a.u.).

Regarding “CGTCTTCCTCTTCTTCTTGTTGTTGTTGGCGATGTCGGCGCGGAGTCACCTAGTGCAG”, the binding signal was 8260 fluorescence intensity (a.u.).

Regarding “CCGACCCCGTCCACTGGCTGGTCTGCACTCTCCCATCTCACGGAGTCACCTAGTGCAG”, the binding signal was 8180 fluorescence intensity (a.u.).

As for “GACCTTAAACTTTCCTACTCTTTTTTCCATCTAGAGAAGACGGAGTCACCTAGTGCAG”, the binding signal was 8300 fluorescence intensity (a.u.).

Turning to “ACAGGATCCAACTATTATTCCTCATGCTCTTCTCTTAGGTCGGAGTCACCTAGTGCAG”, the binding signal was 9010 fluorescence intensity (a.u.). Regarding “ACTGTACTCCCACGTTTACTAAAACCACCGCGAATTGGGTCGGAGTCACCTAGTGCAG”, the binding signal was 9690 fluorescence intensity (a.u.).

Consider “GTTCGTAGGGGTAGGATTTGCATGCGTGTATTTGTAGGGGCGGAGTCACCTAGTGCAG”, for which the binding signal was 13700 fluorescence intensity (a.u.). “CGACGCCGACCTCATGGCCCGCGCCACCACCACCCGCGCCCGGAGTCACCTAGTGCAG”: the binding signal was 8220 fluorescence intensity (a.u.). The figure for “AGTTAATTATGTGCCGGTCCCCGCTGTTGTCCACCATCCGCGGAGTCACCTAGTGCAG” is 9010 fluorescence intensity (a.u.); for “GACGGCGCCCTGCGGCTTCGGTTGCGGGGTGGGTGGTGGCCGGAGTCACCTAGTGCAG” it is 10300 fluorescence intensity (a.u.); for “GCTCATATTCCCGATTGATATGTTGGTGAATGGTAATTTTCGGAGTCACCTAGTGCAG” it is 9760 fluorescence intensity (a.u.).

As for “GACGCGGTCCACGGAACACCACCACCTCATTTTTGGCGGGCGGAGTCACCTAGTGCAG”, the binding signal was 9380 fluorescence intensity (a.u.). “CACCCCGGTTCGGGAAGATTCGTCCATGGCTGCCCTGTCGCGGAGTCACCTAGTGCAG”: the binding signal was 8370 fluorescence intensity (a.u.). The figure for “TTTTTTTTCTTTCTGTTCTGTTTCTGTTGAGAAACAAAGACGGAGTCACCTAGTGCAG” is 8450 fluorescence intensity (a.u.); for “GGGGCGGAAACGGGCGAGGGAGGCGCGGGGAGGGTTTAAACGGAGTCACCTAGTGCAG” it is 22600 fluorescence intensity (a.u.).

For the sequence “TCGACTCCACCACACTCCAGTCCAGTCCAGTACACTCCGCCGGAGTCACCTAGTGCAG”, the binding signal is 9040 fluorescence intensity (a.u.).

As to “TAGTTCCAAAATATTTCTTCAAACTTCAAACTTCTTCATCCGGAGTCACCTAGTGCAG”, the binding signal is 8610 fluorescence intensity (a.u.). As for “CCACCTGTCATCGTCACCGTTAAGCAAAAACGACTTTTCACGGAGTCACCTAGTGCAG”, the binding signal was 8380 fluorescence intensity (a.u.). For “CCATATATTTTTTTAACTTTTTCCTTTTGTTTTTTATTTTCGGAGTCACCTAGTGCAG”, the binding signal is 8870 fluorescence intensity (a.u.). The figure for “TCCGTTTTGCAGTTGTGGCATCTTCAAGGGTTCTTCCGGACGGAGTCACCTAGTGCAG” is 8530 fluorescence intensity (a.u.); for “CTTGGTTAATTTCCTTTGAGTCTATCTCTCTCATCCAATTCGGAGTCACCTAGTGCAG” it is 8900 fluorescence intensity (a.u.); for “AGTCCATCTAATTCGGCTGCACTCTTTTTCCCCTGTGAAGCGGAGTCACCTAGTGCAG” it is 8530 fluorescence intensity (a.u.).

In the case of “CCCAGTCTCCTTCTATACATATACGTGTACCCTCTGCTTCCGGAGTCACCTAGTGCAG”, the binding signal was 8580 fluorescence intensity (a.u.).

Turning to “TGCGTATCTTCAGCCTCGTTAATTTCCATGTTACTAGTATCGGAGTCACCTAGTGCAG”, the binding signal was 8610 fluorescence intensity (a.u.). Turning to “GCGTGTTAAAAAAACGGCCACAGTCAACCACCAAAACTATCGGAGTCACCTAGTGCAG”, the binding signal was 8120 fluorescence intensity (a.u.). Regarding “CTGTAAATCATATACACTTCTTGGAATGACGCTTTAATTCCGGAGTCACCTAGTGCAG”, the binding signal is 8540 fluorescence intensity (a.u.). For the sequence “TGTTGGAATTCAATGAGTGTTTGTTGTGTATCCTTCTGATCGGAGTCACCTAGTGCAG”, the binding signal was 8100 fluorescence intensity (a.u.). Next, “GGCCACTCCTCCACGCACACACCTCTCTCTCTCTCTCTCTCGGAGTCACCTAGTGCAG”: 9210 fluorescence intensity (a.u.); “AAGGAAAGCAATAAACACAGTAACTCCACCCAACTATTTCCGGAGTCACCTAGTGCAG”: 9620 fluorescence intensity (a.u.); “TATTGTTTGCCTTCCAGCGTATATAAGCCATTGCGAAATTCGGAGTCACCTAGTGCAG”: 8180 fluorescence intensity (a.u.). Next, “CTGTCTCAACCTGCATTTGCTCTGTTCCAAAATTCTCTCCCGGAGTCACCTAGTGCAG”: 10700 fluorescence intensity (a.u.). In the case of “CTCCCCACTCACCATCTCCCCGTGGTGTCCTCCGCGGCTCCGGAGTCACCTAGTGCAG”, the binding signal was 8800 fluorescence intensity (a.u.).

In the case of “GGCTGCTATTCCGCTTCTTTCCGCTCGGACCAGCCCACTACGGAGTCACCTAGTGCAG”, the binding signal was 10500 fluorescence intensity (a.u.). Next, “CCTCGATGCGAAAAACGAGTTTTTTTTTCTTCTTCGTCTTCGGAGTCACCTAGTGCAG”: 11000 fluorescence intensity (a.u.). Take “GCTCCGCTTCTCCTCTCCCATCTCTCGCTTCGCTCCGCTTCGGAGTCACCTAGTGCAG”: the binding signal is 8800 fluorescence intensity (a.u.). In the case of “ACTCCGACCACCACGCCCCGCCCATGGGTCCTCCGAGCGTCGGAGTCACCTAGTGCAG”, the binding signal is 10100 fluorescence intensity (a.u.). Consider “GCTCCCGTTTTGGGCGACCTTGGGTCTCTTGGGGTCGGTGCGGAGTCACCTAGTGCAG”, for which the binding signal is 8320 fluorescence intensity (a.u.). “TTCAATGACAATGTTGACTTTTTGACAAACGTTTAACCTTCGGAGTCACCTAGTGCAG”: the binding signal was 10200 fluorescence intensity (a.u.). For the sequence “CATCGTATCATATTTGGGTATTTTCTCCTTGATTAGCCAGCGGAGTCACCTAGTGCAG”, the binding signal is 8270 fluorescence intensity (a.u.).
